PubChem BioAssay AID504774, Drosophila RNAi Screening Center, 2011
The screen tested about 23,000 reagents; shown is a random part of those with a known target gene and a result. 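Values are quantile-normalised luminescence on an arbitrary scale; higher means more cells surviving MMS.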 Reagents against one gene are numbered here. A plus sign joins genes that one reagent is predicted to hit. Not all columns of the deposit are shown.

Test: 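Knock-downs that shift viability of MMS-exposed cells relative to untreated ones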 (primary screen)
Cell system: Drosophila Kc167 cells
Knock-down reagent: long dsRNA against Drosophila genes, about 0.25 µg dsRNA per well
Time to read-out: about 6 days: 3 days knock-down, then 3 days with or without MMS
Challenge: methyl methanesulphonate 0.004% (w/v) for 3 days after knock-down
Measured: 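Viability in wells given MMS, read as ATP luminescence, normalised by quantiles plate by plate and averaged across replicates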
Reading the numbers: mean viability with MMS: higher = more surviving cells after MMS

| gene | reagent | mean viability with MMS |
| --- | --- | --- |
| CG31007 | 1 | 3.63e6 |
| rho-5 | 1 | 3.82e6 |
| Alp1 | 1 | 3.47e6 |
| CG31922 | 1 | 3.44e6 |
| Ptp61F | 1 | 3.65e6 |
| l(2)34Fd | 1 | 3.37e6 |
| CG4945 | 1 | 3.56e6 |
| CG31054 (retired record) | 1 | 3.42e6 |
| Ptp10D | 1 | 3.54e6 |
| CG11293 (retired record) | 1 | 3.71e6 |
| Sox15 | 1 | 3.14e6 |
| tup | 1 | 3.53e6 |
| CR13656 | 1 | 3.38e6 |
| CR13656 | 2 | 3.70e6 |
| CG17048 | 1 | 3.62e6 |
| br | 1 | 3.47e6 |
| br | 2 | 3.61e6 |
| br | 3 | 3.32e6 |
| br | 4 | 3.26e6 |
| Chpf | 1 | 3.80e6 |
| Chpf | 2 | 3.58e6 |
| loaf | 1 | 3.56e6 |
| TwdlG | 1 | 3.56e6 |
| CG12016 + Dpm2 | 1 | 3.52e6 |
| Or43b | 1 | 3.61e6 |
| Ho | 1 | 3.63e6 |
| Atf-2 | 1 | 3.29e6 |
| Atf-2 | 2 | 1.60e6 |
| brk | 1 | 2.99e6 |
| brk | 2 | 3.52e6 |
| CG13127 | 1 | 3.46e6 |
| Osi5 | 1 | 3.59e6 |
| CG14464 | 1 | 3.55e6 |
| CG32845 | 1 | 3.72e6 |
| Obp56a | 1 | 3.59e6 |
| GatA | 1 | 3.68e6 |
| slow | 1 | 3.71e6 |
| slow | 2 | 3.43e6 |
| Stacl + CG8179 (retired record) | 1 | 3.54e6 |
| Stacl + CG8179 (retired record) | 2 | 3.75e6 |
| Eig71Ek | 1 | 3.67e6 |
| alpha-Est7 | 1 | 1.93e6 |
| Ripalpha | 1 | 3.62e6 |
| Als2 | 1 | 3.53e6 |
| CkIIbeta | 1 | 3.54e6 |
| CG3223 | 1 | 3.53e6 |

A few values from the list:
For “mean viability with MMS”, CG12016 + Dpm2 is entered as 3.52e6
Entry for CG13127 in “mean viability with MMS”: 3.46e6
Stacl + CG8179 (retired record) #1, mean viability with MMS → 3.54e6
For “mean viability with MMS”, CkIIbeta has 3.54e6
Atf-2 #1, mean viability with MMS = 3.29e6
Under “mean viability with MMS”, Chpf #2 has 3.58e6
